Data as given in PubChem BioAssay AID1224829 (NIAID, 2016).

- Purpose: 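Genes needed for LPS-driven NF-kappaB p65 nuclear entry in mouse macrophages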 (follow-up of hits)
- Cells: mouse RAW264.7 G9 macrophage reporter cells
- Reagent: single siRNA against mouse genes, 100 nM
- Timing: 2 days of siRNA knock-down, then 40 min of LPS before fixing
- Challenge: LPS (Salmonella minnesota R595) at 10 ng/ml
- Measured: 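Imaging of GFP-p65 after 40 min of LPS; nuclear over perinuclear ring intensity ratio, scaled to plate median and non-targeting control wells, given as z-score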
- Direction: p65 translocation z-score and gene median z-score, per vendor: higher = more nuclear NF-kappaB p65 after LPS
- Hit rule: 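Active means the replicate-mean z-score lies beyond plus or minus 2, in either direction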
- Calls: active = changed p65 translocation (either direction); inactive = no clear change
The whole screen tested about 3,800 reagents; this is a random part of them. 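Calls cover raised and lowered translocation; gene median uses one vendor's three siRNAs; qiagen siRNAs acted more weakly than ambion siRNAs.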 Entries without a mark were called inactive. Reagents against one gene are numbered here.

S1pr5 (sphingosine-1-phosphate receptor 5) #1, siRNA vendor or control pool ambion single siRNA scored p65 translocation z-score, replicate mean -1.45; p65 translocation z-score, replicate 1 = -0.569; p65 translocation z-score, replicate 2 = -2.33; gene median z-score, per vendor -1.98.
With S1pr5 (sphingosine-1-phosphate receptor 5) #2, siRNA vendor or control pool ambion single siRNA the deposit lists p65 translocation z-score, replicate mean -2.74 (active); p65 translocation z-score, replicate 1 = -3.84; p65 translocation z-score, replicate 2 = -1.63; gene median z-score, per vendor -1.98.
S1pr5 (sphingosine-1-phosphate receptor 5) #3, siRNA vendor or control pool ambion single siRNA gave gene median z-score, per vendor -1.98.
With S1pr5 (sphingosine-1-phosphate receptor 5) #4, siRNA vendor or control pool qiagen single siRNA, the values are p65 translocation z-score, replicate mean 1.38; p65 translocation z-score, replicate 1 = 1.65; p65 translocation z-score, replicate 2 = 1.1; gene median z-score, per vendor 1.38.
For S1pr5 (sphingosine-1-phosphate receptor 5) #5, siRNA vendor or control pool qiagen single siRNA, the values are p65 translocation z-score, replicate mean 1.61; p65 translocation z-score, replicate 1 = 0.501; p65 translocation z-score, replicate 2 = 2.72; gene median z-score, per vendor 1.38.
For S1pr5 (sphingosine-1-phosphate receptor 5) #6, siRNA vendor or control pool qiagen single siRNA, the values are p65 translocation z-score, replicate mean 1.42; p65 translocation z-score, replicate 1 = 2.27; p65 translocation z-score, replicate 2 = 0.56; gene median z-score, per vendor 1.38.
For Aldh1a2 (aldehyde dehydrogenase family 1, subfamily A2) #1, siRNA vendor or control pool ambion single siRNA, the values are p65 translocation z-score, replicate mean -1.82; p65 translocation z-score, replicate 1 = -1.95; p65 translocation z-score, replicate 2 = -1.68; gene median z-score, per vendor -3.21.
For Aldh1a2 (aldehyde dehydrogenase family 1, subfamily A2) #2, siRNA vendor or control pool ambion single siRNA the deposit lists p65 translocation z-score, replicate mean -3.88 (active); p65 translocation z-score, replicate 1 = -4.14; p65 translocation z-score, replicate 2 = -3.61; gene median z-score, per vendor -3.21.
Aldh1a2 (aldehyde dehydrogenase family 1, subfamily A2) #3, siRNA vendor or control pool ambion single siRNA showed p65 translocation z-score, replicate mean -3.85 (active); p65 translocation z-score, replicate 1 = -4.9; p65 translocation z-score, replicate 2 = -2.8; gene median z-score, per vendor -3.21.
For Aldh1a2 (aldehyde dehydrogenase family 1, subfamily A2) #4, siRNA vendor or control pool qiagen single siRNA, the values are p65 translocation z-score, replicate mean 0.25; p65 translocation z-score, replicate 1 = 0.586; p65 translocation z-score, replicate 2 = -0.0849; gene median z-score, per vendor -0.349.
Aldh1a2 (aldehyde dehydrogenase family 1, subfamily A2) #5, siRNA vendor or control pool qiagen single siRNA gave p65 translocation z-score, replicate mean -0.54; p65 translocation z-score, replicate 1 = -0.566; p65 translocation z-score, replicate 2 = -0.513; gene median z-score, per vendor -0.349.
With Aldh1a2 (aldehyde dehydrogenase family 1, subfamily A2) #6, siRNA vendor or control pool qiagen single siRNA the deposit lists p65 translocation z-score, replicate mean -0.554; p65 translocation z-score, replicate 1 = -0.923; p65 translocation z-score, replicate 2 = -0.184; gene median z-score, per vendor -0.349.

Only “p65 translocation z-score, replicate 1” (3 entries from above):
Aldh1a2 (aldehyde dehydrogenase family 1, subfamily A2) #4, siRNA vendor or control pool qiagen single siRNA = 0.586
Aldh1a2 (aldehyde dehydrogenase family 1, subfamily A2) #5, siRNA vendor or control pool qiagen single siRNA = -0.566
Aldh1a2 (aldehyde dehydrogenase family 1, subfamily A2) #6, siRNA vendor or control pool qiagen single siRNA = -0.923

The results go on:
For Wls (wntless WNT ligand secretion mediator) #1, siRNA vendor or control pool ambion single siRNA, the entry reads p65 translocation z-score, replicate mean -0.924; p65 translocation z-score, replicate 1 = -1.22; p65 translocation z-score, replicate 2 = -0.626; gene median z-score, per vendor -0.561.
With Wls (wntless WNT ligand secretion mediator) #2, siRNA vendor or control pool ambion single siRNA the deposit lists p65 translocation z-score, replicate mean -0.561; p65 translocation z-score, replicate 1 = -0.58; p65 translocation z-score, replicate 2 = -0.543; gene median z-score, per vendor -0.561.
Wls (wntless WNT ligand secretion mediator) #3, siRNA vendor or control pool ambion single siRNA gave p65 translocation z-score, replicate mean 0.606; p65 translocation z-score, replicate 1 = 1.4; p65 translocation z-score, replicate 2 = -0.191; gene median z-score, per vendor -0.561.
Wls (wntless WNT ligand secretion mediator) #4, siRNA vendor or control pool qiagen single siRNA gave p65 translocation z-score, replicate mean 0.154; p65 translocation z-score, replicate 1 = -0.67; p65 translocation z-score, replicate 2 = 0.978; gene median z-score, per vendor -0.67.
Wls (wntless WNT ligand secretion mediator) #5, siRNA vendor or control pool qiagen single siRNA showed p65 translocation z-score, replicate mean -0.511; p65 translocation z-score, replicate 1 = -1.14; p65 translocation z-score, replicate 2 = 0.119; gene median z-score, per vendor -0.67.
Wls (wntless WNT ligand secretion mediator) #6, siRNA vendor or control pool qiagen single siRNA showed p65 translocation z-score, replicate mean -6.42 (active); p65 translocation z-score, replicate 1 = -6.42; gene median z-score, per vendor -0.67.
Senp3 (SUMO/sentrin specific peptidase 3) #1, siRNA vendor or control pool ambion single siRNA gave p65 translocation z-score, replicate mean -3.21 (active); p65 translocation z-score, replicate 1 = -3.85; p65 translocation z-score, replicate 2 = -2.56; gene median z-score, per vendor -1.59.
With Senp3 (SUMO/sentrin specific peptidase 3) #2, siRNA vendor or control pool ambion single siRNA, the entry reads p65 translocation z-score, replicate mean 1.57; p65 translocation z-score, replicate 1 = 3.52; p65 translocation z-score, replicate 2 = -0.377; gene median z-score, per vendor -1.59.
Senp3 (SUMO/sentrin specific peptidase 3) #3, siRNA vendor or control pool ambion single siRNA showed p65 translocation z-score, replicate mean -2.15 (active); p65 translocation z-score, replicate 1 = -0.614; p65 translocation z-score, replicate 2 = -3.69; gene median z-score, per vendor -1.59.
Senp3 (SUMO/sentrin specific peptidase 3) #4, siRNA vendor or control pool qiagen single siRNA gave p65 translocation z-score, replicate mean 2.8 (active); p65 translocation z-score, replicate 1 = 2.3; p65 translocation z-score, replicate 2 = 3.3; gene median z-score, per vendor -1.61.
For Senp3 (SUMO/sentrin specific peptidase 3) #5, siRNA vendor or control pool qiagen single siRNA, the values are p65 translocation z-score, replicate mean -1.62; p65 translocation z-score, replicate 1 = -1.63; p65 translocation z-score, replicate 2 = -1.61; gene median z-score, per vendor -1.61.
Senp3 (SUMO/sentrin specific peptidase 3) #6, siRNA vendor or control pool qiagen single siRNA scored p65 translocation z-score, replicate mean -3.73 (active); p65 translocation z-score, replicate 1 = -3.73; gene median z-score, per vendor -1.61.
Pard6a (par-6 family cell polarity regulator alpha) #1, siRNA vendor or control pool ambion single siRNA scored p65 translocation z-score, replicate mean -0.483; p65 translocation z-score, replicate 1 = 0.298; p65 translocation z-score, replicate 2 = -1.26; gene median z-score, per vendor -1.26.
Pard6a (par-6 family cell polarity regulator alpha) #2, siRNA vendor or control pool ambion single siRNA gave p65 translocation z-score, replicate mean -1.52; p65 translocation z-score, replicate 1 = -1.63; p65 translocation z-score, replicate 2 = -1.4; gene median z-score, per vendor -1.26.
Pard6a (par-6 family cell polarity regulator alpha) #3, siRNA vendor or control pool ambion single siRNA gave p65 translocation z-score, replicate mean -0.472; p65 translocation z-score, replicate 1 = 0.319; p65 translocation z-score, replicate 2 = -1.26; gene median z-score, per vendor -1.26.
For Mapre3 (microtubule-associated protein, RP/EB family, member 3) #1, siRNA vendor or control pool ambion single siRNA the deposit lists p65 translocation z-score, replicate mean -1.54; p65 translocation z-score, replicate 1 = -1.53; p65 translocation z-score, replicate 2 = -1.55; gene median z-score, per vendor -0.686.
Mapre3 (microtubule-associated protein, RP/EB family, member 3) #2, siRNA vendor or control pool ambion single siRNA showed p65 translocation z-score, replicate mean -1.02; p65 translocation z-score, replicate 1 = 0.157; p65 translocation z-score, replicate 2 = -2.2; gene median z-score, per vendor -0.686.
Mapre3 (microtubule-associated protein, RP/EB family, member 3) #3, siRNA vendor or control pool ambion single siRNA gave p65 translocation z-score, replicate mean 1.38; p65 translocation z-score, replicate 1 = 0.479; p65 translocation z-score, replicate 2 = 2.27; gene median z-score, per vendor -0.686.
Mapre3 (microtubule-associated protein, RP/EB family, member 3) #4, siRNA vendor or control pool qiagen single siRNA scored p65 translocation z-score, replicate mean -0.0649; p65 translocation z-score, replicate 1 = 0.587; p65 translocation z-score, replicate 2 = -0.716; gene median z-score, per vendor -0.0649.
Mapre3 (microtubule-associated protein, RP/EB family, member 3) #5, siRNA vendor or control pool qiagen single siRNA scored p65 translocation z-score, replicate mean 1.74; p65 translocation z-score, replicate 1 = 1.4; p65 translocation z-score, replicate 2 = 2.08; gene median z-score, per vendor -0.0649.
With Mapre3 (microtubule-associated protein, RP/EB family, member 3) #6, siRNA vendor or control pool qiagen single siRNA, the entry reads p65 translocation z-score, replicate mean -2.31 (active); p65 translocation z-score, replicate 1 = -3.77; p65 translocation z-score, replicate 2 = -0.844; gene median z-score, per vendor -0.0649.
